The whole screen tested about 390,000 compounds, of which about 910 (0.23%) were called active. Inconclusive means that the source gave no clear call. Such entries were picked first, then a sample of the others. The call rests on the fitted dose curve; in most records, active means well fitted inhibition curve with a large enough effect; inconclusive means small, poorly fitted or top-dose-only effect; inactive means no such curve, though single readings can be large or run the other way. Potencies beside an inconclusive call are fits to weak or partial responses and may not hold up.
Target: Ubiquitin carboxyl-terminal hydrolase 1 (Homo sapiens) (UniProt O94782)
Assay: Inhibitors of USP1/UAF1: Primary Screen; further: nearly all actives have a fitted effect of over 60% in size
Conditions: recombinant USP1/UAF1, Ub-Rhodamine cleavage fluorescence; activity change, negative = inhibition: at 57.1 µM (top of the series)
Method in brief: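 Step one: compound is pinned into 1nM USP1/UAF1 in HEPES pH 7.8 buffer with TCEP. Step two: 15 min room-temperature incubation. Step three: Ub-Rho (150nM final) starts cleavage, tracked by fluorescence over six one-minute reads.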
On the % scale 0 is the no-effect control and ±100 the full control effect; potency means the concentration at half of the fitted maximal effect.

Protein sequences, listed by entry. Tags and fused reporters are not part of them. Lines headed by an entry give the natural chain unless they say otherwise; changes in a name come on top.
UniProt O94782: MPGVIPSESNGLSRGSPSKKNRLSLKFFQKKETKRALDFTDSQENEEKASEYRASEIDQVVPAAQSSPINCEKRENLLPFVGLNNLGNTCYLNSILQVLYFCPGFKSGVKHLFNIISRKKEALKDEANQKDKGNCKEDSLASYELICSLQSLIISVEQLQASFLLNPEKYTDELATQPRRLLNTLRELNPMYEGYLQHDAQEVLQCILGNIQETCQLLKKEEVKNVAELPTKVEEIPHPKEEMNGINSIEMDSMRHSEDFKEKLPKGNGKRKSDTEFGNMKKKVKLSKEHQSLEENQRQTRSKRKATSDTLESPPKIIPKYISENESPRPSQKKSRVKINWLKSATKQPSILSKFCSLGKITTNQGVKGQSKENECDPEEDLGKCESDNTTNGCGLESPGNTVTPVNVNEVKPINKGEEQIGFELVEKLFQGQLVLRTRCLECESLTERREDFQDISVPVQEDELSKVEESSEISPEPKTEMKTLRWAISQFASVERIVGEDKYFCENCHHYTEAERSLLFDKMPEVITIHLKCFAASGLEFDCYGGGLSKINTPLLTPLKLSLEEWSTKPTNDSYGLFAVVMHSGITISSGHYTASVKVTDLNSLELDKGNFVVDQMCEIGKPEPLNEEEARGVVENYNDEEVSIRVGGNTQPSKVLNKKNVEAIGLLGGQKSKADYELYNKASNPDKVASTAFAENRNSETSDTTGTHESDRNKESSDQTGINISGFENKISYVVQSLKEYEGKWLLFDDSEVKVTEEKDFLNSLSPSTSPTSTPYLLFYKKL

Potency, active:
CCN(CC)c1ccc2cc(-c3nc(-c4cc(OC)c(OC)c(OC)c4)no3)c(=O)oc2c1 39.8 µM

Potency, inactive:
CCN(CCN(C)C)C(=O)C1CCN(S(=O)(=O)c2c(C)noc2/C=C/c2ccccc2F)CC1

Potency, inconclusive:
CCOc1ccc(NC(=O)Cn2cc(S(=O)(=O)N3CCN(c4ccccc4F)CC3)c3ccccc3c2=O)cc1 79.4 µM [inhibitor, partial curve, poor fit]
N/C(=N\OC(=O)Nc1ccccc1)c1ncc([N+](=O)[O-])s1 5.01 µM [inhibitor, partial curve]
O=C(Nc1c(Cl)cccc1Cl)c1cc(-c2cccc(O)c2)on1 3.55 µM [inhibitor, full curve, poor fit]
O=C1C(=Cc2ccco2)CCC1=Cc1ccco1 22.4 µM [inhibitor, partial curve]
CCCN(C(=O)c1cc2c(s1)-c1c(C)cccc1OC2)c1ccc(OCC)cc1 0.0316 µM [inhibitor, full curve, poor fit]
O=C(/C=C/c1cn(CC(O)CN2CCCCCC2)c2ccccc12)c1ccc(Br)cc1 (stereo not given) 70.8 µM [inhibitor, partial curve, poor fit]
COc1ccccc1NC(=O)C1CCN(c2cnccn2)CC1 14.1 µM [inhibitor, partial curve, poor fit]
O=C1N[C@@H](Cc2ccccc2)COC(=O)[C@@H](Cc2ccc(F)cc2)CC/C=C/C[C@H]1CC(=O)N(CCO)Cc1ccccc1 2.24 µM [inhibitor, full curve, poor fit]
COc1cc2cc(CNc3ccccc3)c(=O)n(CC(=O)Nc3cc(C)cc(C)c3)c2cc1OC 15.8 µM [inhibitor, partial curve]
CCCOc1ccc(C(=O)NCCC(=O)NCCCC(=O)OCC)cc1 35.5 µM [inhibitor, partial curve, poor fit]
COc1ccc(-c2cc(=O)oc3c4c(ccc23)OCN(Cc2cccc(OC)c2)C4)cc1 12.6 µM [inhibitor, partial curve, poor fit]
Cc1c(C(=O)NCC(c2ccco2)N2CCCC2)sc2ccccc12 (stereo not given) 3.98 µM [inhibitor, partial curve]
Cc1cc(C)c2c(n1)SCCN2C(=O)Nc1ccc(C(=O)Nc2ccc(C(C)C)cc2)cc1 0.251 µM [inhibitor, full curve, poor fit]
COc1ccc(S(=O)(=O)N2CCOCC2)cc1NC(=O)CSc1n[nH]c(C(C)C)n1 6.31 µM [inhibitor, single point]
CCOC(=O)CSc1nnc(Cn2nnc3ccccc32)n1-c1ccc(F)cc1 0.891 µM [inhibitor, partial curve]
CCCCCCC[C@@H](C/C=C/CCC(=O)N(C)C/C(=C/Cl)C/C(=C\C(=O)N1C[C@H](O)CC1=O)OC)OC 50.1 µM [inhibitor, partial curve, poor fit]
Cc1cn2c(=O)cc(COc3ccccc3NC(=O)c3ccc(Cl)cc3)nc2s1 44.7 µM [inhibitor, partial curve, poor fit]
Cc1ccc(NC(=O)c2nc[nH]c2C(=O)NCCCCCCNC(=O)c2[nH]cnc2C(=O)Nc2ccc(C)cc2)cc1 100 µM [inhibitor, partial curve, poor fit]
Cc1ccc(C2C(C#N)=C(N)N(c3cccnc3)C3=C2C(=O)CCC3)s1 (stereo not given) 39.8 µM [inhibitor, partial curve]
CC1CCN(c2nc3c(c(=O)n(C)c(=O)n3C)n2CCSc2nc3ccccc3s2)CC1 7.08 µM [inhibitor, full curve]
COc1ccc(C(C#N)(CC(=O)O)c2cnccn2)cc1OC (stereo not given) 50.1 µM [inhibitor, partial curve, poor fit]
COc1ccc(C2=C(c3ccc([N+](=O)[O-])cc3)C(=O)OC2)cc1 25.1 µM [inhibitor, partial curve]
COc1ccc(CCNC(=O)C2CC3Cn4c(nc5ccccc54)C3N2Cc2ccccc2)cc1 (stereo not given) 31.6 µM [inhibitor, partial curve]
Cn1c(-c2ccsc2)c(-c2cccs2)c2cc(-c3cccc4[nH]ccc34)ccc21 4.47 µM [inhibitor, partial curve]
CCCc1cc(C(=O)Nc2c(C)n(C)n(-c3ccccc3)c2=O)no1 56.2 µM [inhibitor, partial curve, poor fit]
COc1ccc(CN(C)C(=O)c2[nH]c(C)c(C(C)=O)c2C)c(OC)c1OC 7.94 µM [inhibitor, partial curve, poor fit]
Cc1cccc(-c2nc(CS(=O)CC(=O)N3CCc4ccccc4C3)c(C)o2)c1 (stereo not given) 0.282 µM [inhibitor, full curve, poor fit]
CCOC(=O)NC(=S)Nc1cccc(C)n1 0.251 µM [inhibitor, full curve, poor fit]

8 compounds from above, ordered by heavy-atom count, rising.
Potency, inconclusive:
CCOC(=O)NC(=S)Nc1cccc(C)n1 0.251 µM [inhibitor, full curve, poor fit]
O=C1C(=Cc2ccco2)CCC1=Cc1ccco1 22.4 µM [inhibitor, partial curve]
Cc1c(C(=O)NCC(c2ccco2)N2CCCC2)sc2ccccc12 (stereo not given) 3.98 µM [inhibitor, partial curve]
CCCOc1ccc(C(=O)NCCC(=O)NCCCC(=O)OCC)cc1 35.5 µM [inhibitor, partial curve, poor fit]
COc1ccc(CN(C)C(=O)c2[nH]c(C)c(C(C)=O)c2C)c(OC)c1OC 7.94 µM [inhibitor, partial curve, poor fit]
CCCN(C(=O)c1cc2c(s1)-c1c(C)cccc1OC2)c1ccc(OCC)cc1 0.0316 µM [inhibitor, full curve, poor fit]
Cc1cc(C)c2c(n1)SCCN2C(=O)Nc1ccc(C(=O)Nc2ccc(C(C)C)cc2)cc1 0.251 µM [inhibitor, full curve, poor fit]
CCOc1ccc(NC(=O)Cn2cc(S(=O)(=O)N3CCN(c4ccccc4F)CC3)c3ccccc3c2=O)cc1 79.4 µM [inhibitor, partial curve, poor fit]

Following part:

Activity change, negative = inhibition, inactive:
O=C(Cc1ccccc1)Nc1ccc(NC(=O)c2ccco2)nc1 5.33%
Cc1ccc2c(c1)[nH]c1c(=O)n(Cc3ccco3)cnc12 -30.7%
C=CCC(CC=C)(CNC(=O)C(=O)Nc1ccc(C(=O)OCC)cc1)c1ccccc1 -26.1%
COc1ccc(C2C(C(C)=O)=C(O)C(=O)N2c2nc3ccccc3s2)cc1OC (stereo not given) -16.2%
O=C1c2ccccc2C(=O)c2c(O)c(O)cc(O)c21 -34.3%
O=C(NC1CC1)c1cc(-c2ccco2)nc2ccccc12 -8.47%
O=C1c2ccccc2C(=O)c2c(Nc3ccc(CCO)cc3)ccc(O)c21 -17.8%
Cc1ccc(OC/C(=N\O)C(C)(C)C)c([N+](=O)[O-])c1 0.469%
O=[N+]([O-])c1ncccc1OCc1ccc(-c2ccccc2)cc1 -7.86%
CCc1ccc(CN(C)C(=O)c2cc(=O)c3ccccc3o2)cc1 -9.07%

Reprinted from the results shown (2 entries):
Activity change, negative = inhibition, inactive:
O=[N+]([O-])c1ncccc1OCc1ccc(-c2ccccc2)cc1 -7.86%
CCc1ccc(CN(C)C(=O)c2cc(=O)c3ccccc3o2)cc1 -9.07%
